Reference: US20040038344A1
Results are given in words; binding and its absence hold for the method and conditions named. Binding seen in cells or lysates may run through a third protein. Some results given as binding are weak or reduced against the parent protein; the word gives no strength.

Chains of the proteins cited; added tags and fusions are not shown. Residues count along the entry.
UniProt P16144, residues 28-1822: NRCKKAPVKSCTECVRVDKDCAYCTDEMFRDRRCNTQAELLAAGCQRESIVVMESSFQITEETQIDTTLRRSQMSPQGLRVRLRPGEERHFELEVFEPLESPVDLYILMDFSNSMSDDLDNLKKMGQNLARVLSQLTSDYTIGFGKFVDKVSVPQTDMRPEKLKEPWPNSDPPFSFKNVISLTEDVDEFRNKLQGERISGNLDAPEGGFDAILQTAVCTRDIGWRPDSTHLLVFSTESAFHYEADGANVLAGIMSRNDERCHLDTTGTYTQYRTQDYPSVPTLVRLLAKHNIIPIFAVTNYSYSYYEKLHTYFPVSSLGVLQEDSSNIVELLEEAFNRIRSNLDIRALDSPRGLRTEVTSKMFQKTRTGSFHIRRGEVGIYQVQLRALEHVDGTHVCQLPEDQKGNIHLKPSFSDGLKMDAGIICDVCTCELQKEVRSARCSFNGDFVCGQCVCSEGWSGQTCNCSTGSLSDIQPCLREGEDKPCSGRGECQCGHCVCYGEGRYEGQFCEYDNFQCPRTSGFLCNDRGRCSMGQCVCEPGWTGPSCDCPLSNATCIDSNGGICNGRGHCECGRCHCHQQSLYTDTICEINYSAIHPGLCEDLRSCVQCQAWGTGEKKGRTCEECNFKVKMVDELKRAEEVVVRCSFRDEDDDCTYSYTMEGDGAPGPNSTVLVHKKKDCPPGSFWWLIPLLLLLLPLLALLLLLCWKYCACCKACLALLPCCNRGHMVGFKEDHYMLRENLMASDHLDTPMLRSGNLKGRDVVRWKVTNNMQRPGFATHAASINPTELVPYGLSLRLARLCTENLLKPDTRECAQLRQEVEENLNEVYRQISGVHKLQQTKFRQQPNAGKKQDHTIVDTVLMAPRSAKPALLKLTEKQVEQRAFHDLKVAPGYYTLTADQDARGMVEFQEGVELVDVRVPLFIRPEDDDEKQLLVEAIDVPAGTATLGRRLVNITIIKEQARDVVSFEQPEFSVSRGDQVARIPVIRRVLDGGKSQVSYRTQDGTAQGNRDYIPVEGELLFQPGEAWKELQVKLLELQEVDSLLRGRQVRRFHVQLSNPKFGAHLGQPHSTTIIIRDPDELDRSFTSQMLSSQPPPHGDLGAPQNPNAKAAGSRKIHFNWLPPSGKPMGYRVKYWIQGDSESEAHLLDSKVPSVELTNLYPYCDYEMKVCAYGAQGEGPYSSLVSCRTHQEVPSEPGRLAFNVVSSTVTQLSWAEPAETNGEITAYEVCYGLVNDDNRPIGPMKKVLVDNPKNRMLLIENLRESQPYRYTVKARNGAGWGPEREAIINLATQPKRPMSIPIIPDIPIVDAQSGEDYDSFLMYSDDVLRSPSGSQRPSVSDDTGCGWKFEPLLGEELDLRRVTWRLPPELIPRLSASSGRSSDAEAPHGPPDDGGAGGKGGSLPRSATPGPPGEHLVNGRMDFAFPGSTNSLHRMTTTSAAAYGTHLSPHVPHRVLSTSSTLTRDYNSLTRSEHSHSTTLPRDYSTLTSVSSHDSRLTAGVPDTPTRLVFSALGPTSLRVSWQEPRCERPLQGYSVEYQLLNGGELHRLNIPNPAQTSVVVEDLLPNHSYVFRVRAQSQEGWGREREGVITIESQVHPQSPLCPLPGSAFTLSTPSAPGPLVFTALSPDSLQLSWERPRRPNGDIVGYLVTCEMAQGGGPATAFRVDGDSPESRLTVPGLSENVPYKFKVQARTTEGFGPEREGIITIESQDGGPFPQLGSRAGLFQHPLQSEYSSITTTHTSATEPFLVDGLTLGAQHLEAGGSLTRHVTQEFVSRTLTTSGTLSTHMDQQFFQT

Legend:
beta4 integrin (human) [1] = target: beta4 integrin (human) (UniProt P16144); assay: co-immunoprecipitation from surface-biotinylated cells
beta4 integrin (human) [2] = target: beta4 integrin (human) (UniProt P16144); assay: co-immunoprecipitation from surface-biotinylated HaCaT cells with anti-beta4 antibodies
beta4 integrin (human) [3] = target: beta4 integrin (human) (UniProt P16144); assay: co-immunoprecipitation with antibody A9; 'alpha4' is read as beta4
beta4 integrin (human) [4] = target: beta4 integrin (human) (UniProt P16144); assay: co-immunoprecipitation (FIG. 3), as restated in the discussion

Measured: binding

B1: alpha6p integrin (70-kDa N-terminally truncated variant of human alpha6 integrin) (receptor)
chain: RVNSLPEVLPILNSDEPKTAHIDVHFLKEGCGDDNVCNSNLKLEYKFCTREGNQDKFSYLPIQKGVPELVLKDQKDIALEITVTNSPSNPRNPTKDGDDAHEAKLIATFPDTLTYSAYRELRAFPEKQLSCVANQNGSQADCELGNPFKRNSNVTFYLVLSTTEVTFDTPYLDINLKLETTSNQDNLAPITAKAKVVIELLLSVSGVAKPSQVYFGGTVVGEQAMKSEDEVGSLIEYEFRVINLGKPLTNLGTATLNIQWPKEISNGKWLLYLVKVESKGLEKVTCEPQKEINSLNLTESHNSRKKREITEKQIDDNRKFSLFAERKYQTLNCSVNVNCVNIRCPLRGLDSKASLILRSRLWNSTFLEEYSKLNYLDILMRAFIDVTAAAENIRLPNAGTQVRVTVFPSKTVAQYSGVPWWIILVAILAGILMLALLVFILWKCGFFKRNKKDHYDATYHKAEIHAQPSDKERLTSDA
binds: beta4 integrin (human) [1] | beta4 integrin (human) [2] | beta4 integrin (human) [3] | beta4 integrin (human) [4]
